# Measured values: PubChem BioAssay (NCATS)
# The shares of active, inactive and inconclusive entries below differ from those in the screen. Potencies beside an inconclusive call are fits to weak or partial responses and may not hold up. Active and inactive are the calls of the source. Calls follow the shape of the dose curve; as a rule, active = well fitted cell-killing curve with a large enough effect; inconclusive = small, poorly fitted or top-dose-only effect, or effect the other way; inactive = no such curve, though single readings can be large or run the other way.
# How the values were obtained:
# [1] = Quantitative High-Throughput drug screen in 47 multiple myeloma cell lines against the NCATS MIPE library collection: Delta47_JCRB cell viability assay (AID 1918925; also: nearly all actives have a fitted effect of over 45% in size); conditions: Delta47 myeloma viability, CellTiter-Glo ATP, 48 h; viability (% of DMSO): at 45.8 µM (top of the series)
# Summary of the method: (§1)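 CellTiter-Glo ATP luminescence gave viability after 48 h compound treatment at 37C of 500 multiple myeloma cells per well. Normalisation used DMSO-only wells as 100% and media-only wells as 0% viability; primary qHTS of approved and investigational drugs.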
# [2] = Quantitative High-Throughput drug screen in 47 multiple myeloma cell lines against the NCATS MIPE library collection: AMO1_DSMZ cell viability assay (AID 1918927; also: nearly all actives have a fitted effect of over 30% in size); conditions: AMO1 myeloma cells viability, CellTiter-Glo ATP luminescence, 48 h; viability, % of DMSO: at 45.8 µM (top of the series)
# Summary of the method: as §1
# [3] = Quantitative High-Throughput drug screen in 47 multiple myeloma cell lines against the NCATS MIPE library collection: ARP1_JJKsccF8 cell viability assay (AID 1918928; also: nearly all actives have a fitted effect of over 40% in size); conditions: ARP1 myeloma cells viability, CellTiter-Glo ATP, 48 h; viability: at 45.8 µM (top of the series)
# Summary of the method: (§2)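 Cell viability inhibition in this qHTS is measured via ATP content (CellTiter-Glo) after 48 h drug exposure at 37 °C. Wells hold 500 cells; DMSO-treated wells define 100% and medium-only wells 0%.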
# [4] = Quantitative High-Throughput drug screen in 47 multiple myeloma cell lines against the NCATS MIPE library collection: ARD_JJKsccE7 cell viability assay (AID 1918929); conditions: ARD myeloma cell line viability, CellTiter-Glo, 48 h; viability: at 45.8 µM (top of the series)
# Summary of the method: as §1
# [5] = Quantitative High-Throughput drug screen in 47 multiple myeloma cell lines against the NCATS MIPE library collection: KMM1_JCRB cell viability assay (AID 1918960); conditions: KMM1 myeloma viability, CellTiter-Glo ATP luminescence, 48 h; viability (% of DMSO): at 45.8 µM (top of the series); also: nearly all actives have a fitted effect of over 30% in size
# Summary of the method: as §2
# [6] = Quantitative High-Throughput drug screen in 47 multiple myeloma cell lines against the NCATS MIPE library collection: EJM_DSMZ cell viability assay (AID 1918926; also: nearly all actives have a fitted effect of over 30% in size); conditions: EJM myeloma cell viability, CellTiter-Glo ATP, 48 h; series mostly up to 45.8 µM
# Summary of the method: as §1
# [7] = Quantitative High-Throughput drug screen in 47 multiple myeloma cell lines against the NCATS MIPE library collection: Karpas620_DSMZ cell viability assay (AID 1918959); conditions: Karpas620 myeloma viability, CellTiter-Glo ATP luminescence, 48 h; series mostly up to 45.8 µM; also: nearly all actives have a fitted effect of over 30% in size
# Summary of the method: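 Myeloma cells (500 per well) were exposed to MIPE 4.0 compounds by pin transfer and incubated 48 hours at 37C, 5% CO2. Viability was read as ATP by CellTiter-Glo luminescence, normalised to DMSO (100%) and media-only (0%) wells.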
# Potency is read from the fitted curve at half-maximal effect.
structure (smiles),measurement,setting,value
CCOP(=O)(OCC)C(C)NC(=O)N(CCCl)N=O (stereo unspecified),Potency,[1],inactive
same,Potency,[2],inactive
same,Potency,[3],inactive
same,Potency,[4],inactive
same,Potency,[5],inactive
CN1CCN(C(=O)O[C@H]2c3nccnc3C(=O)N2c2ccc(Cl)cn2)CC1,Potency,[1],"inconclusive: 9.3 nM [cytotoxic, full curve, poor fit]"
same,Potency,[6],inactive
same,Potency,[3],"inconclusive: 20900 nM [cytotoxic, partial curve, poor fit]"
same,Potency,[4],inconclusive: 1 nM
C[C@@H]1C[C@@H]([C@H](O)CC2CC(=O)NC(=O)C2)C(=O)[C@@H](C)C1,Potency,[1],active: 743 nM
O=[N+]([O-])c1ncc[nH]1,Potency,[3],inactive
same,Potency,[4],"inconclusive: 4.7 nM [cytotoxic, full curve, poor fit]"
CC(C)(O)C(=O)Nc1ccc([N+](=O)[O-])c(C(F)(F)F)c1,Potency,[6],"inconclusive: 33200 nM [cytotoxic, single point]"
same,Potency,[7],active: 18700 nM
same,Potency,[5],"inconclusive: 23500 nM [cytotoxic, partial curve]"
CC[C@@]1(O)C(=O)OCc2c1cc1n(c2=O)Cc2cc3ccccc3nc2-1,Potency,[4],active: 372 nM
COC[C@H]1OC(=O)c2coc3c2[C@@]1(C)C1=C(C3=O)[C@@H]2CC[C@H](O)[C@@]2(C)C[C@@H]1OC(C)=O,Potency,[6],"inconclusive: 5260 nM [cytotoxic, partial curve]"
COc1cc2cc(c1Cl)N(C)C(=O)C[C@H](OC(=O)C(C)C)[C@]1(C)O[C@H]1[C@H](C)[C@@H]1C[C@@](O)(NC(=O)O1)[C@H](OC)C=CC=C(C)C2,Potency,[1],inactive
same,Potency,[7],"inconclusive: 10500 nM [cytotoxic, partial curve]"
CC1=NN=C(c2ccc(N)cc2)c2cc3c(cc2C1)OCO3,Potency,[2],"inconclusive: 23500 nM [cytotoxic, single point]"
same,Potency,[3],inactive
same,Potency,[4],"inconclusive: 16600 nM [cytotoxic, partial curve, poor fit]"
same,Potency,[7],active: 20900 nM
same,Potency,[5],"inconclusive: 16600 nM [cytotoxic, partial curve]"
Cc1c(N)nc([C@H](CC(N)=O)NC[C@@H](N)C(N)=O)nc1C(=O)N[C@H](C(=O)N[C@@H](C)[C@H](O)[C@@H](C)C(=O)N[C@@H](C(=O)NCCc1nc(-c2nc(C(=O)NCCC[S+](C)C)cs2)cs1)[C@@H](C)O)C(O[C@H]1O[C@H](CO)[C@H](O)[C@@H](O)[C@@H]1O[C@H]1O[C@H](CO)[C@@H](O)[C@H](OC(N)=O)[C@H]1O)c1cnc[nH]1 (stereo partly specified),Potency,[6],"inconclusive: 1050 nM [cytotoxic, partial curve, poor fit]"
same,Potency,[3],"inconclusive: 209 nM [cytotoxic, full curve, poor fit]"
same,Potency,[4],"inconclusive: 16.6 nM [cytotoxic, full curve, poor fit]"
same,Potency,[7],"inconclusive: 187 nM [cytotoxic, full curve, poor fit]"
COc1ccc2c(c[n+](C)c3c4cc5c(cc4ccc23)OCO5)c1OC,Potency,[2],active: 6620 nM
C1=C2CCCN[C@H]2[C@@H]2C[C@H]1[C@@H]1CCCCN1C2,Potency,[1],inactive
same,Potency,[4],"inconclusive: 10500 nM [rising, partial curve, poor fit]"
same,Potency,[5],inactive
C[C@@H]1CC[C@@]2(OC1)O[C@H]1C[C@H]3[C@@H]4CC=C5C[C@@H](O[C@@H]6O[C@H](CO)[C@@H](O[C@@H]7O[C@@H](C)[C@H](O)[C@@H](O)[C@@H]7O)[C@H](O)[C@@H]6O[C@@H]6O[C@@H](C)[C@H](O)[C@@H](O)[C@@H]6O)CC[C@]5(C)[C@@H]4CC[C@]3(C)[C@@H]1[C@H]2C,Potency,[4],active: 2350 nM
same,Potency,[7],active: 2960 nM
CCN1C[C@]2(OC(=O)c3ccccc3NC(C)=O)CC[C@H](OC)[C@@]34[C@H]5CC6[C@@H](OC)C[C@](O)(C(C[C@@H]23)[C@@H]14)[C@@]5(O)[C@@H]6OC,Potency,[6],inactive
same,Potency,[2],inactive
same,Potency,[3],inactive
same,Potency,[4],"inconclusive: 5.3 nM [cytotoxic, full curve, poor fit]"
CC(=Cc1csc(C)n1)[C@@H]1C[C@H]2O[C@@H]2CCC[C@H](C)[C@@H](O)[C@@H](C)C(=O)C(C)(C)[C@@H](O)CC(=O)O1,Potency,[1],inactive
same,Potency,[7],"inconclusive: 1.2 nM [cytotoxic, full curve]"
C[C@@H]1O[C@@H](O[C@H]2C[C@@H](O)[C@]3(CO)[C@H]4[C@H](O)C[C@]5(C)[C@@H](C6=CC(=O)OC6)CC[C@]5(O)[C@@H]4CC[C@]3(O)C2)[C@H](O)[C@H](O)[C@H]1O,Potency,[1],active: 29.6 nM
same,viability (% of DMSO),[5],inconclusive: 6.34% [cytotoxic]
O=C(Nc1ccncc1)C(=O)c1cn(Cc2ccc(Cl)cc2)c2ccccc12,Potency,[3],active: 74.3 nM
same,Potency,[7],"inconclusive: 13.2 nM [cytotoxic, full curve]"
C[C@]12CC[C@H]3[C@@H](CCC4=CC(=O)CC[C@@]43C)[C@H]1CC[C@H]2OC(=O)CCC1CCCC1,Potency,[6],active: 16600 nM
same,Potency,[2],"inconclusive: 1.2 nM [rising, full curve, poor fit]"
same,Potency,[3],"inconclusive: 2090 nM [cytotoxic, full curve, poor fit]"
same,Potency,[4],"inconclusive: 1.9 nM [cytotoxic, full curve, poor fit]"
CCC1(c2ccc(N)cc2)CCC(=O)NC1=O (stereo unspecified),Potency,[1],inactive
same,Potency,[3],inactive
same,Potency,[5],inactive
O=P1(N(CCCl)CCCl)NCCCO1 (stereo unspecified),Potency,[6],"inconclusive: 1050 nM [cytotoxic, partial curve, poor fit]"
same,Potency,[2],"inconclusive: 46.9 nM [cytotoxic, full curve, poor fit]"
same,Potency,[3],"inconclusive: 8330 nM [cytotoxic, full curve, poor fit]"
same,Potency,[4],inactive
same,Potency,[7],active: 18700 nM
same,Potency,[5],"inconclusive: 13200 nM [cytotoxic, partial curve]"
COC1=CC(C)=C[C@@H](C)[C@@H](O)[C@@H](C)CC(C)=CC=C[C@H](OC)[C@H]([C@@H](C)[C@@H](O)[C@H](C)[C@@]2(O)C[C@@H](O)[C@H](C)[C@@H](C(C)C)O2)OC1=O,Potency,[1],active: 18.7 nM
same,Potency,[3],"inconclusive: 66.2 nM [cytotoxic, full curve, poor fit]"
same,viability,[4],inconclusive: 6.56% [cytotoxic]
same,Potency,[7],active: 14800 nM
CCc1c(C(=O)C(N)=O)c2c(OCC(=O)O)cccc2n1Cc1ccccc1,Potency,[3],"inconclusive: 118 nM [rising, partial curve, poor fit]"
C[C@]12CCC(=O)C(O)=C1CC[C@@H]1[C@H]3CCC(=O)[C@@]3(C)CC[C@@H]12,Potency,[3],"inconclusive: 526 nM [cytotoxic, full curve, poor fit]"
COc1cc([C@@H]2c3cc4c(cc3[C@@H](O)C3COC(=O)C32)OCO4)cc(OC)c1O (stereo partly specified),Potency,[3],active: 20.9 nM
same,Potency,[7],active: 18.7 nM
CC1(N2CCC(n3c([C@@H]4CCCNC4)nc4ccccc43)CC2)CCCCCCC1,Potency,[6],inactive
same,Potency,[3],"inconclusive: 18700 nM [cytotoxic, partial curve]"
same,Potency,[4],"inconclusive: 37200 nM [cytotoxic, partial curve, poor fit]"
CSCC[C@@H](NC(=O)[C@@H](Cc1ccccc1)NC(=O)CNC(=O)CNC(=O)[C@@H](N)Cc1ccc(O)cc1)C(=O)O,Potency,[1],inactive
same,Potency,[3],inactive
same,Potency,[4],inactive
same,Potency,[7],"inconclusive: 10500 nM [rising, single point]"
same,Potency,[5],inactive
CO[C@H]1CCC(O[C@H]2C[C@H]([C@]3(C)CC[C@]4(C[C@H](O)[C@@H](C)[C@@H]([C@@H](C)C=C(C)C(=O)[C@H](C)C[C@H](C)C(=O)O)O4)O3)O[C@]3(O[C@@H]([C@H]4O[C@@](O)(CO)[C@H](C)C[C@H]4C)C[C@H]3C)[C@H]2C)O[C@H]1C (stereo partly specified),Potency,[2],"inconclusive: 264 nM [cytotoxic, full curve, poor fit]"
same,Potency,[3],active: 1180 nM
same,Potency,[4],"inconclusive: 469 nM [cytotoxic, full curve, poor fit]"
same,Potency,[7],active: 264 nM
COc1cccc2c1[C@]13CCN(CC4CC4)[C@H](C2)[C@]1(OC)CCC(=O)C3,Potency,[1],inactive
same,Potency,[7],inactive
CCOC(=O)Nc1ccc(NCc2ccc(F)cc2)cc1N,Potency,[6],inactive
same,Potency,[2],inactive
same,Potency,[3],inactive
same,Potency,[4],"inconclusive: 2.3 nM [rising, full curve, poor fit]"
same,Potency,[7],"inconclusive: 23500 nM [cytotoxic, single point]"
CN[C@@H]1Cc2cccc3[nH]c(=O)n(c23)C1,Potency,[6],inactive
same,Potency,[2],"inconclusive: 118 nM [cytotoxic, full curve, poor fit]"
same,Potency,[3],"inconclusive: 37200 nM [cytotoxic, single point]"
same,Potency,[4],"inconclusive: 743 nM [cytotoxic, full curve, poor fit]"
same,Potency,[5],inactive
Cc1c(C(=O)c2cccc3ccccc23)c2cccc3c2n1[C@H](CN1CCOCC1)CO3,Potency,[6],"inconclusive: 20900 nM [cytotoxic, partial curve]"
same,Potency,[2],"inconclusive: 9350 nM [cytotoxic, single point]"
same,Potency,[3],active: 26400 nM
same,Potency,[4],"inconclusive: 9350 nM [cytotoxic, single point]"
N#C[C@H](O[C@@H]1O[C@H](CO[C@@H]2O[C@H](CO)[C@H](O)[C@H](O)[C@H]2O)[C@H](O)[C@H](O)[C@H]1O)c1ccccc1,Potency,[6],"inconclusive: 18700 nM [cytotoxic, partial curve]"
same,Potency,[2],"inconclusive: 8330 nM [cytotoxic, single point]"
same,Potency,[3],"inconclusive: 23500 nM [cytotoxic, partial curve]"
same,Potency,[5],"inconclusive: 11800 nM [cytotoxic, single point]"
CC[C@@H](C(N)=O)N1CCCC1=O,Potency,[1],inactive
same,Potency,[3],inactive
same,Potency,[4],inactive
same,Potency,[7],inactive

# Given as tab-separated lines: entries from further up.
structure (smiles)	measurement	setting	value
CC1=NN=C(c2ccc(N)cc2)c2cc3c(cc2C1)OCO3	Potency	[4]	inconclusive: 16600 nM [cytotoxic, partial curve, poor fit]
O=P1(N(CCCl)CCCl)NCCCO1 (stereo unspecified)	Potency	[2]	inconclusive: 46.9 nM [cytotoxic, full curve, poor fit]
CC1(N2CCC(n3c([C@@H]4CCCNC4)nc4ccccc43)CC2)CCCCCCC1	Potency	[6]	inactive
CN[C@@H]1Cc2cccc3[nH]c(=O)n(c23)C1	Potency	[6]	inactive
